Experimental findings from publication PMC3338420 are described below.

Amino acid sequences for entries named in this document (tags omitted). A change or cut given only in a name is not applied to a line headed by its entry. Chains listed by the source or under a name are the forms on record and can include a tag or linker. Residues count along the entry.
UniProt Q6PAL8: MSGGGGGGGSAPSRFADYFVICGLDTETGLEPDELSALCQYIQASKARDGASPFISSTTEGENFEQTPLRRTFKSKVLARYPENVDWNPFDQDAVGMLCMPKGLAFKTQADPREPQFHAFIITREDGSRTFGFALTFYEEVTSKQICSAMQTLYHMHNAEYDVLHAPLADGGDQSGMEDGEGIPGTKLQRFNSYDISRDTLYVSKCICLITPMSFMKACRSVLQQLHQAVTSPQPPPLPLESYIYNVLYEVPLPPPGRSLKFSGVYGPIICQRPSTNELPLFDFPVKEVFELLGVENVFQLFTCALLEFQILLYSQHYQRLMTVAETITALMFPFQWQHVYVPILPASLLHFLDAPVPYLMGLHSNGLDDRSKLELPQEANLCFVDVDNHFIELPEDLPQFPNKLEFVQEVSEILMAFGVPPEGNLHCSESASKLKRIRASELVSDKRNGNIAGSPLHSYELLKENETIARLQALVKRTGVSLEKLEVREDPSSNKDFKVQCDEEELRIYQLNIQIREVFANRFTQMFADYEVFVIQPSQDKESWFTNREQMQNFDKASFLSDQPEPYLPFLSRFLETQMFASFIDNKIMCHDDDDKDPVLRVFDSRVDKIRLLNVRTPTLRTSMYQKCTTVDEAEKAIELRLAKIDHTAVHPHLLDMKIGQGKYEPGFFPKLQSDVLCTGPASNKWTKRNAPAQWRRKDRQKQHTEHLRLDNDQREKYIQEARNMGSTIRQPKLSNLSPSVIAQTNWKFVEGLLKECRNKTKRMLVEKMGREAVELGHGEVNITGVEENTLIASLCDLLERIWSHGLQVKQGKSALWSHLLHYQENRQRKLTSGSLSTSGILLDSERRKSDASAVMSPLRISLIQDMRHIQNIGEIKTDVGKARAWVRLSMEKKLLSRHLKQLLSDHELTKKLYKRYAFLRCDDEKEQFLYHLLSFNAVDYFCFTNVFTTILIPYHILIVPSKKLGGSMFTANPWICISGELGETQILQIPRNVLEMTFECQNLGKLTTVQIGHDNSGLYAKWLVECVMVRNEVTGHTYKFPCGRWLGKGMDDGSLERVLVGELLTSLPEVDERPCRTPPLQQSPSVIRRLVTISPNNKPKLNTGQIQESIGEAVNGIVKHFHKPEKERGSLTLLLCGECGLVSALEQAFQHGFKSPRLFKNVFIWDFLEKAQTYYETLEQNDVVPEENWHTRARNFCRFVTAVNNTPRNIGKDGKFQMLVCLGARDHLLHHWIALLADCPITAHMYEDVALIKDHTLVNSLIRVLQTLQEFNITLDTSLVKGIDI
Rab6a (residues 8–195, Q72L) (P20340, form named): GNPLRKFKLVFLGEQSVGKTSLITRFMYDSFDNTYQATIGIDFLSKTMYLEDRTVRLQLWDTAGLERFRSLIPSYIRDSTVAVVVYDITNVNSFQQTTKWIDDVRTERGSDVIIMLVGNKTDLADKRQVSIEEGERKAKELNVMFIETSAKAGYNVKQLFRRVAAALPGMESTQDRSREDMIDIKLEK

No constants are given. Whether binding was seen depends on the method and setting. Binding can be weak; no strength is given.

Test [1] concerns the target RPdel (RUN1-PLAT of DENND5A, loop 813–835 deleted) (mouse) (UniProt Q6PAL8). Put plainly: SEC; Rab6a co-expressed with the DENND5A fragment in E. coli; complex purified and eluted together in gel filtration, SDS-PAGE of the peak. In general terms: In gel filtration, larger molecules generally elute earlier.
Test [2] has as its target RPRdel (RUN1-PLAT-RUN2 of DENND5A, loop 813–835 deleted) (mouse) (UniProt Q6PAL8). The description is as above.

For “Rab6a (residues 8–195, Q72L) (from UniProt P20340 8-195) (domain or fragment)”, the binding entry in test [1] and in test [2] was “binds” each time.
